From patent US20040058318

Chains of the proteins cited; added tags and fusions are not shown. A line that says so, or that is headed by a name, gives the form on record, which may keep a tag or linker. Residues count along the entry.
UniProt P42224, 1-712: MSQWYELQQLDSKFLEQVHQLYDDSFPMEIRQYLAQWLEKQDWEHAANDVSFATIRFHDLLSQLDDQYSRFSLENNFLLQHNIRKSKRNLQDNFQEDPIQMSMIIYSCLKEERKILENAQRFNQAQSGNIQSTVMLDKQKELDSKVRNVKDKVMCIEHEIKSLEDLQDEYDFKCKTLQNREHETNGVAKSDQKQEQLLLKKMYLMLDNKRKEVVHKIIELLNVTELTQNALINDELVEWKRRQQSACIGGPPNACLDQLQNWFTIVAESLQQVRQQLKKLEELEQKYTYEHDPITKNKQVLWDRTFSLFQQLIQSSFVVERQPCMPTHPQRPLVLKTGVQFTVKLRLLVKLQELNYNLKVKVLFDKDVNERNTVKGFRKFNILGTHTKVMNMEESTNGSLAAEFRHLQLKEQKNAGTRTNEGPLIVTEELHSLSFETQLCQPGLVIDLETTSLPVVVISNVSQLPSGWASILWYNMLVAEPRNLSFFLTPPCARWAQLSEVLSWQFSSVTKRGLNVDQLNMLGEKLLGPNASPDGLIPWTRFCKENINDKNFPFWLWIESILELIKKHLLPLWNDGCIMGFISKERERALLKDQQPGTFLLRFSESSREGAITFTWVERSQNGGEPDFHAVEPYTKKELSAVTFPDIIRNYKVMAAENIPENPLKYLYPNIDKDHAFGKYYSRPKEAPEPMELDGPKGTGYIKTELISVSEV
Stat84/Stat91L heterodimer (Homo sapiens), one chain, as listed by the source, chain 2 of 2: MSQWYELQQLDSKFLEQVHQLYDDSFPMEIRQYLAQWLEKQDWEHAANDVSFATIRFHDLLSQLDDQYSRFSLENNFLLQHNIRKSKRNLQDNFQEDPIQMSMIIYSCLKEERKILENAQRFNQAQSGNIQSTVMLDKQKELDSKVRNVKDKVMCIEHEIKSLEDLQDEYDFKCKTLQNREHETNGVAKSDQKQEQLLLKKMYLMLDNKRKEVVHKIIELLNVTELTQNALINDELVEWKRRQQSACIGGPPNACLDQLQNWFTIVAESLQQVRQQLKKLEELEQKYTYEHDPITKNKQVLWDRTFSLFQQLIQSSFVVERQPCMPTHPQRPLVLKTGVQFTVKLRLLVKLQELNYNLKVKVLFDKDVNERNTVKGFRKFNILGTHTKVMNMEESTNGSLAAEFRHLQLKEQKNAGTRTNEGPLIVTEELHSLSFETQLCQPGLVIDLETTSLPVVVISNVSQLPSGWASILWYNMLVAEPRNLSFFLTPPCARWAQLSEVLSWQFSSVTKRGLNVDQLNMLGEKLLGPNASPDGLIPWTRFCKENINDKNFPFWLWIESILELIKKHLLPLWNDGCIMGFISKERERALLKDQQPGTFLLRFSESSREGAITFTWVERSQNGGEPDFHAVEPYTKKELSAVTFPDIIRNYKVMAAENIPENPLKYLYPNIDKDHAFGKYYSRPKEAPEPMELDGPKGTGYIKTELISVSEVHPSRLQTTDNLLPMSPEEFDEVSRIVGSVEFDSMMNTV
Stat84/Stat91L heterodimer (Homo sapiens), one chain, as listed by the source, chain 1 of 2: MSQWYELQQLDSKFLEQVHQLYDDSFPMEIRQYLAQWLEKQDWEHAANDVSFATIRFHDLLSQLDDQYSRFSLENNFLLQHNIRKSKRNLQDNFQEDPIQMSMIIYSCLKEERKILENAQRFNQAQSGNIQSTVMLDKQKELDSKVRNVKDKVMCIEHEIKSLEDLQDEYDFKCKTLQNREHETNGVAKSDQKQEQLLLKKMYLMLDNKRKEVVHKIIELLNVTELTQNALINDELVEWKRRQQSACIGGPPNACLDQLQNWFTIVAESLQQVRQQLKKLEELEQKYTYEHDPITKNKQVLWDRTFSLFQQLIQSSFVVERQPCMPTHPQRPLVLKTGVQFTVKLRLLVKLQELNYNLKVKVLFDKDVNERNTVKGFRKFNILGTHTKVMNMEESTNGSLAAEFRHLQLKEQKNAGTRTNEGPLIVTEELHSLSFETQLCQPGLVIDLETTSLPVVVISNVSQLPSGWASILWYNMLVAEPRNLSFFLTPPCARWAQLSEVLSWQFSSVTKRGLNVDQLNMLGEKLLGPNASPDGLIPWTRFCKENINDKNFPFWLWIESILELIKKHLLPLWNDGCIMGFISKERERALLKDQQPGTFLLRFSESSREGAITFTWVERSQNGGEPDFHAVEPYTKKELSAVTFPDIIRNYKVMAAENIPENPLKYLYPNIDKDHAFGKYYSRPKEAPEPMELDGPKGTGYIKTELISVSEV

Columns and labels:
Assay in all cases: EMSA
[1] = target: Stat84 (Stat1 beta, 84 kD) homodimer (Homo sapiens) (UniProt P42224); details: protein in an extract; protein details: phosphorylated, expressed in U3A cells (C84); label: 32P
[2] = target: Stat91 (Stat1 alpha), unphosphorylated monomer (Homo sapiens) (UniProt P42224); details: only phosphorylated dimer has sequence-specific DNA binding; protein in an extract; protein details: unphosphorylated; label: 32P
[3] = target: Stat91L homodimer (Homo sapiens) (UniProt P42224); details: IFN-gamma-treated C91L extract; slower band; blocked by 160 uM phosphopeptide GY*IKTE; protein in an extract; label: 32P
[4] = target: Stat91 (Stat1 alpha, 91 kD), tyrosine phosphorylated homodimer (Homo sapiens) (UniProt P42224); details: IFN-gamma-treated Bud8 extract glycerol gradient fractions; DNA binding peak correlates with phosphorylated dimer; protein in an extract; protein details: phosphorylated on Tyr701 (IFN-gamma-treated cells); label: 32P
[5] = tested on: Stat84/Stat91L heterodimer (Homo sapiens); details: intermediate band in Cmx extracts; also after guanidinium denaturation-renaturation of mixed extracts; protein in an extract; label: 32P

“GATCGAGATGTATTTCCCAGAAAAG (double strand) [GAS element, human FcgammaRI receptor gene]”: binds [1]; no binding [2]; binds [3]. “GATCGAGATGTATTTCCCAGAAAAG (double strand) [GAS element, human FcgammaRI receptor gene]”: binds [4]; binds [5].

Where cells or extracts were used, other partners may take part. For some assays here: No signal at the amounts used counts as a negative.
